Data: publication PMC3759450
No constants are given. Whether binding was seen depends on the method and setting. In cells and extracts the contact can be indirect. Some results given as binding are weak or reduced against the parent protein; the word gives no strength.

Chains of the proteins cited; added tags and fusions are not shown.
UniProt P61088: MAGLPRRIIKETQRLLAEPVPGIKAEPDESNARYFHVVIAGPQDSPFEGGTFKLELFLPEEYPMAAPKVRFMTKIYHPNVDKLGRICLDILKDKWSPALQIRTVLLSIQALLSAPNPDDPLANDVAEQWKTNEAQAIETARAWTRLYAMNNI
UniProt O60260: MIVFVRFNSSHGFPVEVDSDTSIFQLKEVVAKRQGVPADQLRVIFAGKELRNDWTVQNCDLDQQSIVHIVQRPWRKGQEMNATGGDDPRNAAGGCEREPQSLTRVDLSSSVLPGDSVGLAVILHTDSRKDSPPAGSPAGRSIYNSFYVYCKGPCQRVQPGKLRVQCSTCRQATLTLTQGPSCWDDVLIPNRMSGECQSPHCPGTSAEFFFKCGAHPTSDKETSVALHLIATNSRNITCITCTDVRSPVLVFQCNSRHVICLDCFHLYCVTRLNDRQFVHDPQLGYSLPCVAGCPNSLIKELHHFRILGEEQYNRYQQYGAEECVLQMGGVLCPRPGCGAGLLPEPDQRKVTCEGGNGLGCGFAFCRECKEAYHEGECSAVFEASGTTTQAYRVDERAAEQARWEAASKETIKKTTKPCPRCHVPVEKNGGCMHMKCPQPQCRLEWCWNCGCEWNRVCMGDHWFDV
UniProt Q9UNE7: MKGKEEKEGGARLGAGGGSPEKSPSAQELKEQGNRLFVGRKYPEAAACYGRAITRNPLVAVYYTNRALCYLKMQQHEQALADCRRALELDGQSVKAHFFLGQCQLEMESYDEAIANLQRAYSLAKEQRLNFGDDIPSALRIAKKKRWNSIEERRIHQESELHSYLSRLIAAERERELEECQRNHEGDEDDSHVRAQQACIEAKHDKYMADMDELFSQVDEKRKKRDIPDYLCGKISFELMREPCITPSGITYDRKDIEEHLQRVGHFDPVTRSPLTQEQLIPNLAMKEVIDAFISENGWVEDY

Experiments:
myc-tagged Ubc13 [1] = biological target: myc-tagged Ubc13 (UniProt P61088); assay: co-IP; anti-myc immunoprecipitation (protein G PLUS/protein A-agarose, five washes in lysis buffer) from Triton-X-soluble lysates of transfected HEK293 cells, immunoblot of the prey; cells untreated or treated with MG132 (1 or 2 uM, 16 h), PSI, lactacystin or DMSO; in some panels with co-expressed HA-synphilin-1 or YFP-Mfn2
myc-tagged Ubc13 [2] = biological target: myc-tagged Ubc13 (UniProt P61088); assay: co-IP; anti-Ubc13 immunoprecipitation from Triton-X-soluble lysates of transfected HEK293 cells, immunoblot of the prey; cells untreated or treated with MG132; in one panel with co-expressed myc-DJ-1 L166P

| binding (myc-tagged Ubc13 [1]) | binding (myc-tagged Ubc13 [2]) | Substance |
| --- | --- | --- |
| binds |  | untagged full length parkin (from UniProt O60260 1-465) (enzyme) |
|  | binds | myc-tagged CHIP (from UniProt Q9UNE7 1-303) (enzyme) |
| binds | binds | FLAG-tagged parkin (wild type) (from UniProt O60260 1-465) (enzyme) |
